Experimental data: PubChem BioAssay AID686943 (Drosophila RNAi Screening Center, 2013)
In all, the deposit lists about 23,000 reagents; this is a random part of those that have a named target and a result. 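Extra replicates exist only for a retested subset of genes; insulin dose and duration not given; both raised and lowered dpERK matter.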 A plus sign joins genes that one reagent is predicted to hit. The record does not give: the amount of reagent, the time to read-out.

- Purpose: 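Fly genes whose loss alters ERK activation after insulin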 (primary screen)
- Cells: Drosophila S2R+ haemocyte-like cells expressing YFP-tagged ERK (Rolled)
- Reagent: long dsRNA against Drosophila genes
- Treatment: insulin stimulation versus unstimulated cells; dose and duration not given
- Read-out: 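Per-plate z-scores of phospho-ERK immunostaining normalised to YFP-tagged ERK, measured with and without insulin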
- Direction: replicate 1, z-score of dpERK with insulin and replicate 2, z-score of dpERK with insulin: higher = more active ERK per ERK-YFP after insulin; replicate 1, z-score of dpERK under basal conditions: higher = more basal active ERK per ERK-YFP; replicate 1, z-score of ERK-YFP with insulin: higher = more YFP-tagged ERK signal

The opening 2 records, ahead of the listing:
| gene knocked down | DRSC id | replicate 1, z-score of dpERK with insulin | replicate 2, z-score of dpERK with insulin | replicate 1, z-score of dpERK under basal conditions | replicate 1, z-score of ERK-YFP with insulin |
| --- | --- | --- | --- | --- | --- |
| CG1544 | DRSC15036 | -1.18 | 0.62 | -0.43 | -0.9 |
| CG7742 | DRSC03066 | 0.24 | 0.87 | -0.34 | 0.49 |

The listing, repeating the preview:
| gene knocked down | DRSC id | replicate 1, z-score of dpERK with insulin | replicate 2, z-score of dpERK with insulin | replicate 1, z-score of dpERK under basal conditions | replicate 1, z-score of ERK-YFP with insulin |
| --- | --- | --- | --- | --- | --- |
| CG1544 | DRSC15036 | -1.18 | 0.62 | -0.43 | -0.9 |
| CG7742 | DRSC03066 | 0.24 | 0.87 | -0.34 | 0.49 |
| borr | DRSC02749 | 0.25 | 0.07 | -1.29 | -0.58 |
| CG31524 | DRSC22014 | -0.06 | -1.12 | -0.69 | 0.46 |
| brv3 | DRSC18657 | 0.5 | -0.04 | 0.11 | -0.07 |
| Tbcb | DRSC06067 | -0.83 | 0.44 | 0.48 | 0.53 |
| Ser8 | DRSC06891 | -0.72 | -1.37 | 0.55 | -0.66 |
| CG5011 | DRSC00674 | 0.94 | 0.49 | 0.16 | -0.94 |
| CG34445 | DRSC22404 | 0.05 | -3.16 | -0.13 | 0.39 |
| sun | DRSC20140 | -0.46 | -0.21 | -2.13 | -0.35 |
| CG9962 | DRSC00739 | -1.27 | -0.39 | -0.84 | 1.3 |
| Glut1 | DRSC07927 | -0.54 | -0.46 | -1.18 | -0.36 |
| Glut1 | DRSC08378 | 0.91 | 0.9 | -1.48 | -0.29 |
| Glut1 | DRSC08662 | -0.09 | 0.43 | 0.84 | -0.06 |
| bt | DRSC17129 | 0.63 | -0.15 | -0.17 | -0.25 |
| bt | DRSC17171 | -0.33 | -0.33 | -0.03 | -0.23 |
| JTBR | DRSC08667 | -0.01 | -0.28 | 4.85 | 0.3 |
| eIF4G1 | DRSC17218 | -1.71 | -2.43 | 2.31 | 1.18 |
| Polr1H | DRSC14594 | -0.15 | -0.44 | 1.76 | -0.2 |
| orb2 + CG43783 | DRSC10540 | 0.11 | 0.46 | -0.32 | 0.05 |
| orb2 + CG43783 | DRSC10541 | 0.35 | 0.31 | -0.55 | -0.26 |
| orb2 + CG43783 | DRSC10542 | -0.36 | 0.49 | 0.23 | 0.62 |
| lncRNA:CR43632 | DRSC13730 | -0.89 | -1 | 0.11 | 0.5 |
| Cat | DRSC11110 | -0.11 | -0.52 | -0.65 | -0.39 |
| djl | DRSC12578 | -0.1 | -0.25 | -0.81 | 0.17 |
| CG31538 | DRSC12059 | 0.02 | 0.46 | -0.3 | 0.14 |
| Tsen54 | DRSC10527 | 0.53 | 0.06 | -2.09 | 0.01 |
| Sf3b1 | DRSC00535 | -0.66 | 5.13 | -1.83 | -6.27 |
| CG14866 | DRSC14989 | 1.08 | -1.8 | 1.04 | -0.18 |
| CG2186 | DRSC19838 | -0.9 | -0.78 | 1.03 | 1.37 |
| CG5446 | DRSC02862 | -0.1 | -0.69 | -0.62 | -1.39 |
| CG13070 | DRSC09953 | -0.08 | 0.07 | -0.16 | 0.26 |
| ema | DRSC14536 | -1.21 | 0.73 | -0.37 | 0.44 |
| CG13041 | DRSC09922 | -0.09 | 0.06 | -0.54 | -0.74 |
| CG17782 | DRSC15267 | -1.01 | 0.21 | 0.77 | 0.22 |
| CG31404 | DRSC15497 | 0.29 | 0 | -0.13 | -0.2 |
| CG9427 | DRSC16490 | -0.16 | 0.23 | -1.25 | -1.17 |
| CG31926 | DRSC00295 | 0.6 | -0.07 | 0.58 | -0.63 |
| IntS14 | DRSC00668 | 0.17 | -0.19 | -0.05 | 1.11 |
| CG11555 | DRSC00315 | -0.65 | -0.43 | -0.6 | 1.23 |
| Oscillin | DRSC03001 | -0.3 | 0.4 | 1.81 | -0.21 |
| CG7352 | DRSC16233 | 0.15 | 0.61 | -0.32 | 0.18 |
| CG3534 | DRSC15494 | 0.48 | 2.06 | -0.13 | -0.75 |
| Rab26 | DRSC11837 | -0.44 | -2.49 | -0.26 | 2.09 |
| Rab26 | DRSC11838 | 0.48 | -0.23 | 0.51 | -0.02 |
| Rab26 | DRSC11839 | 0.76 | -0.41 | 0.7 | -0.69 |
| Glut3 | DRSC16681 | 0.78 | -1.54 | 1.04 | -0.07 |
| CG7564 | DRSC10880 | 0.32 | -1.6 | 2.28 | -0.12 |
| CG14621 | DRSC20635 | 0.33 | 0.01 | -0.13 | -0.09 |
| Oatp58Dc | DRSC04363 | 0.45 | 0.44 | -0.57 | -0.09 |
| osp | DRSC01409 | -0.01 | 0.3 | 0.9 | 0.19 |
| osp | DRSC03585 | 0.52 | 0.53 | -0.1 | -3.06 |
| CG32148 | DRSC09338 | 0.26 | 1.05 | -1.76 | -0.58 |
| Mst84Db | DRSC12542 | 0.12 | 0.41 | -0.59 | -0.18 |
| Mst84Db | DRSC12598 | -1.16 | -0.48 | -1.31 | -1.14 |
| CG7745 | DRSC07037 | -2.57 | -2.79 | -1.47 | -1.52 |
| CG13577 | DRSC04213 | -0.61 | -0.46 | 0.05 | 0.15 |
